Source: patent US20060130172A1, “Gene encoding resistance to acetolactate synthase-inhibiting herbicides” (priority 2003, published 2006)
Some entries share one result that the patent states for a list of compounds.

System: R11-AMACH smooth pigweed
Assay: Greenhouse screen of ALS-inhibiting herbicides on resistant smooth pigweed biotype
Assay type: in vivo, Amaranthus hybridus L.
Details: whole plant, based on the response of S-AMACH
Text: Seeds from a smooth pigweed (Aniaranthus hybridus L.) population (R11-AMACH) were collected from a field in southeastern Pennsylvania where extreme ALS-inhibitor herbicide selection pressure was imposed over a several year period within continuous soybean production. R11-AMACH was selected naturally with ALS-inhibiting herbicides representative of the SU, IMI, and TP herbicide chemistries.
To establish levels and patterns of ALS resistance, R11-AMACH and an ALS susceptible smooth pigweed biotype (S-AMACH) were screened in the greenhouse with various rates of the ALS-inhibiting herbicides, chlorimuron (SU), thifensulfuron (SU), imazethapyr (IMI), pyrithiobac (POB), and cloransulam-methyl (TP). Rates evaluated were based on a log10 scale that included 0, 1/100×, 1/10×, 1×, 10×, and 100×, where 1× corresponds to the normal use rate in the field. R11-AMACH responded differently to the rate increase as compared to S-AMACH. […] Evaluations and measurements were recorded 3 weeks after herbicide treatment (WAT). […] Biomass represents plant dry weights recorded several days after plants were harvested. Biomass reduction was calculated based on the amount of biomass reduced by herbicide treatment compared to the untreated plant biomass.

COc1cc(Cl)nc(NC(=O)NS(=O)(=O)c2ccccc2C(=O)O)n1 [chlorimuron, 2-[[[[(4-chloro-6-methoxy-2-pyrimidinyl)-amino]carbonyl]amino]-sulfonyl]benzoic acid]
R11-AMACH resistance levels: above 100 times the normal use rate

COc1nc(C)nc(NC(=O)NS(=O)(=O)c2ccsc2C(=O)O)n1 [thifensulfuron, 3-[[[[(4-methoxy-6-methyl-1,3,5-triazin-2-yl)amino]carbonyl]-amino]sulfonyl]-2-thiophenecarboxylic acid]
R11-AMACH resistance levels: above 100 times the normal use rate
